Drawing on article PMC9861611, this text covers binding for one molecule.

Results are given in words; binding and its absence hold for the method and conditions named. In cells and extracts the contact can be indirect. Some results given as binding are weak or reduced against the parent protein; the word gives no strength. Sequences can lack the tags named with a protein.

The target of the assay is T1, AGIA-FLAG-KCNB1 (human) (UniProt Q14721).
T1 sequence: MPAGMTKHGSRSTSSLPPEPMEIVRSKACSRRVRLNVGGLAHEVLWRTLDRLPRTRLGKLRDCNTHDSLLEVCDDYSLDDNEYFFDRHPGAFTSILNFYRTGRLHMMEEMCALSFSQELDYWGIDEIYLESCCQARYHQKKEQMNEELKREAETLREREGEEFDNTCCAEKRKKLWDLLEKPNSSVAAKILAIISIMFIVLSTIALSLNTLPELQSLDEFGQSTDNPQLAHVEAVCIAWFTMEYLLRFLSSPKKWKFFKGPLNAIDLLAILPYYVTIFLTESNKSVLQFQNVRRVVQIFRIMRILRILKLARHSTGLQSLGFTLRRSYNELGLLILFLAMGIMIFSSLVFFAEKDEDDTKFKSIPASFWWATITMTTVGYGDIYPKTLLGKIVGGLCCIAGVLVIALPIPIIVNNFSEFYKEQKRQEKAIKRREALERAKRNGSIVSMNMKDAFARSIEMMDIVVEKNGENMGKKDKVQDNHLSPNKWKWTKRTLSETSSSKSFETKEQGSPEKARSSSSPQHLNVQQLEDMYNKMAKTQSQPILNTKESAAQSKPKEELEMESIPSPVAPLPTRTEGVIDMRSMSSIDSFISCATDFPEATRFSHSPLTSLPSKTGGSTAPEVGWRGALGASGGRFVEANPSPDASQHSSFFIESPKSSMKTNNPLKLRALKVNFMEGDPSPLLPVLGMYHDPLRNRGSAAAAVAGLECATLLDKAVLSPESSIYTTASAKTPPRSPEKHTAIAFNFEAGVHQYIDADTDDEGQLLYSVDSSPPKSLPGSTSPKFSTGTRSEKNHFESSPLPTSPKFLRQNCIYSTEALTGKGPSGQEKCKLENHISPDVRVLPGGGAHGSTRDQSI
Kind of assay: co-IP; AGIA-FLAG-KCNB1 and FLAG-KCNS3 co-synthesized in a wheat cell-free system with asolectin liposomes; washed proteoliposomes solubilized with 1% n-dodecyl-β-D-maltoside, 0.2% cholesteryl hemisuccinate, 20 mM Hepes-NaOH pH 7.2, 150 mM NaCl; IP with anti-AGIA monoclonal antibody on Dynabeads Protein G, 4 °C, 1 h; Western blot with anti-DYKDDDDK antibody. For orientation: A western blot detects proteins with antibodies after separation by electrophoresis.

B1: FLAG-KCNS3 (protein, UniProt Q9BQ31 1-491)
chain: MVFGEFFHRPGQDEELVNLNVGGFKQSVDQSTLLRFPHTRLGKLLTCHSEEAILELCDDYSVADKEYYFDRNPSLFRYVLNFYYTGKLHVMEELCVFSFCQEIEYWGINELFIDSCCSNRYQERKEENHEKDWDQKSHDVSTDSSFEESSLFEKELEKFDTLRFGQLRKKIWIRMENPAYCLSAKLIAISSLSVVLASIVAMCVHSMSEFQNEDGEVDDPVLEGVEIACIAWFTGELAVRLAAAPCQKKFWKNPLNIIDFVSIIPFYATLAVDTKEEESEDIENMGKVVQILRLMRIFRILKLARHSVGLRSLGATLRHSYHEVGLLLLFLSVGISIFSVLIYSVEKDDHTSSLTSIPICWWWATISMTTVGYGDTHPVTLAGKLIASTCIICGILVVALPITIIFNKFSKYYQKQKDIDVDQCSEDAPEKCHELPYFNIRDIYAQRMHTFITSLSSVGIVVSDPDSTDASSIEDNEDICNTTSLENCTAK
With B1, the binding entry is on record as “binds”.
